Paper PMC8490708
No constants are given. Whether binding was seen depends on the method and setting. In cells and extracts the contact can be indirect. Some results given as binding are weak or reduced against the parent protein; the word gives no strength. Sequences can lack the tags named with a protein.

Tests used:
SALL1ΔSIM-YFP (human) = molecular target: T1, SALL1ΔSIM-YFP (human) (UniProt Q9NSC2); assay: pull-down; GFP-Trap co-pulldown: YFP-tagged bait and HA-tagged prey co-transfected in HEK 293FT cells; lysate (150 mM NaCl, 1% NP-40, 0.5% Triton X-100) with GFP-Trap resin overnight at 4°C; washes with 300 mM NaCl; Western blot
T1 sequence: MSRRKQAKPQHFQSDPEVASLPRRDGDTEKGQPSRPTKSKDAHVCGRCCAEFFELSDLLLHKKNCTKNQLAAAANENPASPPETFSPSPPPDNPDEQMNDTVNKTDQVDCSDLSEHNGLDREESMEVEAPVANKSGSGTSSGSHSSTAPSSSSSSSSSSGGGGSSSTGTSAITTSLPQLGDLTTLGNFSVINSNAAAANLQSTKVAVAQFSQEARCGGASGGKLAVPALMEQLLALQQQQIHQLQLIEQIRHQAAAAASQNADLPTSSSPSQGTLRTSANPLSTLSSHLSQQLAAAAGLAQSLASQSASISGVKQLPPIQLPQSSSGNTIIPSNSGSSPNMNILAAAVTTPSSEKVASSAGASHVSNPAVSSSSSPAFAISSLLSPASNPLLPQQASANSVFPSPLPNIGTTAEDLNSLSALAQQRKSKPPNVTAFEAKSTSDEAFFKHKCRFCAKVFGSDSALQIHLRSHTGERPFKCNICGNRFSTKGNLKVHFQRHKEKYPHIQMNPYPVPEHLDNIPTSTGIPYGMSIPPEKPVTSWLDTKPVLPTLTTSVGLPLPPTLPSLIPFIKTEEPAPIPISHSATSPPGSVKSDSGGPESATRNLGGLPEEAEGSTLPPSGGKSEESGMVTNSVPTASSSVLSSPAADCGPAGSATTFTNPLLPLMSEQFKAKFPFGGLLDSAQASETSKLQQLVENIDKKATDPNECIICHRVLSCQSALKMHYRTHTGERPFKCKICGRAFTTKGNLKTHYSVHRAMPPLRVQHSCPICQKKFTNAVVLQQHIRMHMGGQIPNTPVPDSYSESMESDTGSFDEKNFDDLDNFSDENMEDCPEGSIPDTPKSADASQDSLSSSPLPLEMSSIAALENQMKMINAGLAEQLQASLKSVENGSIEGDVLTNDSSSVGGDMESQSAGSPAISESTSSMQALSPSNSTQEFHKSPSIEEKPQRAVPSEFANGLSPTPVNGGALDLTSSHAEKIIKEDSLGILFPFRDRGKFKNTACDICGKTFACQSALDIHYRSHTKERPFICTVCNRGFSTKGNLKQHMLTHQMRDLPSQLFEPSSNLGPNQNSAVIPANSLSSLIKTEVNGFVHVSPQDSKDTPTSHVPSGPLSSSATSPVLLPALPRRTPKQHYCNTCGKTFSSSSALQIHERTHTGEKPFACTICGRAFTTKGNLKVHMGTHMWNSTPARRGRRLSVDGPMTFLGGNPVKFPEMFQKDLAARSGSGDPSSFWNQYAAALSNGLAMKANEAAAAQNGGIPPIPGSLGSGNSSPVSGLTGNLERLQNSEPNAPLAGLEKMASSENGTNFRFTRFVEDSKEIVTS

SALL1-YFP (human) = molecular target: T2, SALL1-YFP (human) (UniProt Q9NSC2); assay: as above
T2 sequence: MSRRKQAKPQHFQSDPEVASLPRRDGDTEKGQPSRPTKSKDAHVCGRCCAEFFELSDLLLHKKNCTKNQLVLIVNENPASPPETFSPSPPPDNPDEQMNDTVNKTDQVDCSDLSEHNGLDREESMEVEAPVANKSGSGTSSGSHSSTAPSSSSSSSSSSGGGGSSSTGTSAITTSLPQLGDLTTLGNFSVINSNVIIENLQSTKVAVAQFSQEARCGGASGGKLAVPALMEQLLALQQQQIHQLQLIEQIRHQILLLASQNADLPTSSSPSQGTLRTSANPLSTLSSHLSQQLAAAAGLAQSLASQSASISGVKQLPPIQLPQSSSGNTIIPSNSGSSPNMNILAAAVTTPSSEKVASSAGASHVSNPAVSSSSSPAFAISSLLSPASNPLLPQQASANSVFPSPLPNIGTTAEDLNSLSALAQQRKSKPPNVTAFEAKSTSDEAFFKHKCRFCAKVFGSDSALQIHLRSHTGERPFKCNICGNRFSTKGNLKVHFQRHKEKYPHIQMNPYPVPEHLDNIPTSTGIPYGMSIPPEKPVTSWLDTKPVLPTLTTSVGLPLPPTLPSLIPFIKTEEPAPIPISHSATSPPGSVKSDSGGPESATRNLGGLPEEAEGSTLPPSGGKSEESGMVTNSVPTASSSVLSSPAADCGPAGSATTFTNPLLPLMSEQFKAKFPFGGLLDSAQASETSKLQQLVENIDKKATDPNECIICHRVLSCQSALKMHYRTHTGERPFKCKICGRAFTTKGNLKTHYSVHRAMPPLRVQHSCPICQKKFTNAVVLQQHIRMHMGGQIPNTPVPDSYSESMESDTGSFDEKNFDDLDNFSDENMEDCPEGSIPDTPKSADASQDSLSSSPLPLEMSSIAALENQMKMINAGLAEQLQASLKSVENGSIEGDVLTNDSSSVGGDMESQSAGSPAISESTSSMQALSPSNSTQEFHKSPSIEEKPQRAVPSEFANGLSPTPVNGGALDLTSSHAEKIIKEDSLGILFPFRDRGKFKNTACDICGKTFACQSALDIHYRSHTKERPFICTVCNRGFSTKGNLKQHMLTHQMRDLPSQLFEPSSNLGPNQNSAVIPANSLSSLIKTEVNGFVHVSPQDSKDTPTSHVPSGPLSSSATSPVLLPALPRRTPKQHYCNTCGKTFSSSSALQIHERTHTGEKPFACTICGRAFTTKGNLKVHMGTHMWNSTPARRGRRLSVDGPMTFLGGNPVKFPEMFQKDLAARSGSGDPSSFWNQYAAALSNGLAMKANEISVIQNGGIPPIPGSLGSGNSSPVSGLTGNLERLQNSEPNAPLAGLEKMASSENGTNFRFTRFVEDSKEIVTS

B1: CBX4-HA (protein, UniProt O00257 1-560)
chain: MELPAVGEHVFAVESIEKKRIRKGRVEYLVKWRGWSPKYNTWEPEENILDPRLLIAFQNRERQEQLMGYRKRGPKPKPLVVQVPTFARRSNVLTGLQDSSTDNRAKLDLGAQGKGQGHQYELNSKKHHQYQPHSKERAGKPPPPGKSGKYYYQLNSKKHHPYQPDPKMYDLQYQGGHKEAPSPTCPDLGAKSHPPDKWAQGAGAKGYLGAVKPLAGAAGAPGKGSEKGPPNGMMPAPKEAVTGNGIGGKMKIVKNKNKNGRIVIVMSKYMENGMQAVKIKSGEVAEGEARSPSHKKRAADERHPPADRTFKKAAGAEEKKVEAPPKRREEEVSGVSDPQPQDAGSRKLSPTKEAFGEQPLQLTTKPDLLAWDPARNTHPPSHHPHPHPHHHHHHHHHHHHAVGLNLSHVRKRCLSETHGEREPCKKRLTARSISTPTCLGGSPAAERPADLPPAAALPQPEVILLDSDLDEPIDLRCVKTRSEAGEPPSSLQVKPETPASAAVAVAAAAAPTTTAEKPPAEAQDEPAESLSEFKPFFGNIIITDVTANCLTVTFKEYVTV
binding (SALL1ΔSIM-YFP (human)): binds
binding (SALL1-YFP (human)): binds
